The term AC50 denotes the concentration giving half of the maximal activity seen. Low readings indicate greater potency, high ones weaker potency.

This passage reports cell number change and AC50 results from PubChem BioAssay AID2685 (National Center for Advancing Translational Sciences (NCATS), 2010).

The list shows a part of the results. The main result of the screen is listed elsewhere. These columns were measured beside it and carry no call. Most of these compounds were active or inconclusive in the main read-out, so they are no random draw. The note in brackets gives the kind of curve behind each potency; many fits are weak.

A short description of this experiment: qHTS Assay for Lipid Storage Modulators in Drosophila S3 Cells.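 On cell number change: cells counted by Cell Tracker Red CMTPX staining in the red channel.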 Particulars: BODIPY lipid droplet fluorescence, 18-24 h; for cell number change: measured here: cell count max response, cells fed with added oleic acid. In short, it runs like this:
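Drosophila S3 cells loaded with oleic acid (400 uM, as added) and compounds at several concentrations; lipid droplets imaged by 488-nm laser-scanning cytometry, 500–530 nm intensity and object ratio to cell channel. Percent activity normalized to 20 uM Triacsin C.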
In general terms: qHTS replaces the single test concentration by a dilution series.

[1] abbreviates: measured here: lipid fluorescence (Fed channel) AC50, cells fed with added oleic acid.
[2] abbreviates: measured here: cell number channel AC50, cells fed with added oleic acid.

Consider `COc1cc(C(C)=O)ccc1OCC(O)Cn1nc(C)c(C(C)=O)c1C` (configuration not stated), for which the cell number change was -2.81%. Moreover, the AC50 under setting [1] is 0.0731 µM [falling, full curve, poor fit].
In the case of `COc1ccc(/C=C/c2ccc(=O)n(Cc3ccccc3)n2)cc1`, the cell number change was found to be 57.3%. For the same compound, the AC50 under setting [2] was 1.84 µM [rising, full curve]. Under setting [1], the AC50 is 5.17 µM [rising, partial curve].
On to `O=C(c1ccc2c(c1)OCO2)N1CCN(C(=O)c2ccco2)CC1`, for which the concentration at half-maximal activity (AC50) under setting [1] was 6.51 µM [falling, partial curve].
Take `Cc1ccc(-n2ncc(C#N)c2/N=C/N2CCOCC2)cc1`: the AC50 under setting [1] is 6.51 µM [rising, single point].
For the compound `Cc1cccc(Cn2cnc3c(nnn3Cc3ccc(F)cc3)c2=O)c1`, the cell number change worked out at 17.6%. Further, under setting [1], the AC50 was 5.17 µM [rising, partial curve].
As to `Cc1ccc(C(=O)COC(=O)c2cc(=O)[nH]c3ccccc23)cc1`, the cell number change worked out at 5.11%. Besides, the AC50 under setting [1] is 6.51 µM [rising, single point].
`COc1ccc(OC)c(NC(=O)CCn2ccnc2)c1`: the cell number change was 38.7%. Besides, the AC50 under setting [2] was 29.1 µM [rising, single point].
Regarding `CC(=O)N1CCc2cc(N=NC3=C(O)CC(C)(C)CC3=O)ccc21`, the cell number change is -9.39%.
In the case of `O=C(COc1ccc(F)cc1)Nc1cc(S(=O)(=O)N2CCCCC2)ccc1N1CCCCC1`, the cell number change was 57.5%. In addition, the AC50 under setting [2] was 2.06 µM [rising, full curve]. Further, the AC50 under setting [1] was 0.731 µM [rising, partial curve].
Regarding `COc1ccc(C2CC(c3ccccc3C)n3nc(N)nc3N2)cc1` (configuration not stated), the AC50 under setting [1] is 2.91 µM [rising, single point].
On the same count and under the same terms, next, `CCC(C(=O)NCc1ccco1)N(C(=O)CNS(=O)(=O)c1ccc(C)cc1)c1ccccc1F` (configuration not stated): 35.5 µM [falling, partial curve, poor fit].
As for `Cc1cccc(NC(=O)CSc2nnc(-c3ccco3)n2CC2CCCO2)n1` (configuration not stated), the cell number change is -26.3%.
With `O=C(Cc1ccc(S(=O)(=O)N2CCOCC2)s1)NNC(=O)c1ccccc1Cl`, the cell number change was -2.28%. Also, the AC50 under setting [1] is 0.116 µM [falling, full curve, poor fit].
Consider `Cc1cc(C)c(S(=O)(=O)N2CCOCC2)cc1C`, for which the cell number change is -3.53%. In addition, the half-maximal activity concentration (AC50) under setting [2] is 0.501 µM [falling, partial curve, poor fit].
For `CCOc1ccc(C2=Nn3c(nnc3-c3ccccc3)SC2)cc1Cl`, the cell number change stood at 35.1%. Under setting [2], the AC50 was 0.731 µM [rising, full curve, poor fit]. Moreover, under setting [1], the AC50 is 0.291 µM [rising, partial curve, poor fit].
With `Cc1ccc(C(C(=O)NC2CCCCC2)N(CC2CCCO2)C(=O)CCCC(=O)Nc2ccccn2)cc1` (configuration not stated), the cell number change was determined as 11.3%.
As to `COc1ccc(C(=O)COC(=O)c2ccc3c(c2)NC(=O)CS3)c(OC)c1`, the cell number change worked out at 20.2%.
Turning to `Cc1cc(C)cc(OC(=O)CS(=O)c2ccc(C(F)(F)F)cc2[N+](=O)[O-])c1` (configuration not stated), the cell number change was found to be 15.8%. For the same compound, under setting [2], the concentration at half-maximal activity (AC50) was 1.46 µM [falling, partial curve].
As for `Cc1nc2c3cnn(-c4ccc(C)c(C)c4)c3ncn2n1`, the cell number change was determined as 1.15%.
On to `Cc1nnc(NC(=O)C2(c3ccccc3)CCOCC2)s1`, for which the cell number change is 6.74%. In addition, the AC50 under setting [1] is 6.51 µM [falling, single point].
Consider `Cc1ccc(NC(=O)CO/N=C(\N)c2nonc2N)cc1C`, for which the cell number change is 7.04%. In addition, under setting [1], the AC50 is 9.2 µM [rising, partial curve, poor fit].
With `Cc1nc(CS(=O)(=O)c2ccccc2)cc(N2CCN(c3ccccc3F)CC2)n1`, the cell number change is 58.9%. Further, the AC50 under setting [2] was 20.6 µM [rising, single point]. The AC50 under setting [1] is 29.1 µM [rising, single point].
On to `COc1ccc(C(=O)CNc2ccc(C)cc2C)cc1`, for which the AC50 under setting [1] is 0.0058 µM [rising, full curve, poor fit].
Regarding `COc1ccc(NS(=O)(=O)c2cc([N+](=O)[O-])ccc2N/N=C\c2c(C)[nH]c3ccccc23)cc1`, the cell number change was 139%. The AC50 under setting [2] is 20.6 µM [rising, partial curve].
In the case of `CCCNc1ncnc2onc(C)c12`, the cell number change is -9.64%. The AC50 under setting [1] is 0.082 µM [rising, full curve, poor fit].
In the case of `CCCOc1ccc(N2C(=O)CC(N(Cc3ccco3)C(C)=O)C2=O)cc1` (configuration not stated), the cell number change was -30.4%. In addition, under setting [2], the AC50 is 29.1 µM [falling, single point]. Also, under setting [1], the AC50 was 29.1 µM [falling, single point].
As to `CCn1c(C)nc2cc(C(=O)N/N=C/c3ccc(OC)c(O)c3)ccc21`, the cell number change was -20%. Also, under setting [1], the half-maximal activity concentration (AC50) is 2.31 µM [rising, full curve].
As for `CCOC(=O)C1CCN(C(=O)C2(NC(=O)NC3CCCCC3)CCCCC2)CC1`, the cell number change is -58.6%. Besides, the AC50 under setting [2] is 2.91 µM [falling, partial curve]. Further, under setting [1], the half-maximal activity concentration (AC50) is 3.66 µM [falling, full curve].
Regarding `O=C(Cc1ccccc1)NCC(=O)Nc1cc(Cl)ccc1Cl`, the cell number change turned out to be 19.8%. The AC50 under setting [1] is 32.6 µM [rising, single point].
For `O=C(NCc1cccc(Cl)c1)c1cc(COc2ccc3ncccc3c2)on1`, the cell number change is -38.7%. In addition, the concentration at half-maximal activity (AC50) under setting [2] is 29.1 µM [falling, single point]. For the same compound, under setting [1], the AC50 is 18.4 µM [falling, single point].
For the compound `COc1ccc(OCC(=O)Nc2ccc3c(c2)nc2n3CCSC2)cc1`, the AC50 under setting [2] was 6.51 µM [rising, single point].
For the compound `O=C(CCS(=O)(=O)c1cccc2nonc12)NCCc1ccccc1`, the cell number change was found to be 4.87%. Moreover, under setting [1], the AC50 is 20.6 µM [rising, partial curve].
Regarding `Clc1ccc(-c2cc(-c3ccccc3)on2)cc1`, the cell number change was -0.656%. Also, the AC50 under setting [1] is 9.2 µM [rising, partial curve].
As to `CC1CCC(NC(=O)c2nc(Cn3ccc([N+](=O)[O-])n3)no2)CC1` (configuration not stated), the cell number change was -5.71%. Also, the AC50 under setting [1] is 29.1 µM [rising, partial curve].
For `C=CCNC(=O)c1cc(-c2ccncc2)nc2c(C)cc(C)cc12`, the cell number change was determined as 0.926%. Also, the AC50 under setting [1] was 2.82 µM [rising, partial curve].
Regarding `CCC(OC(=O)CCc1nc2ccccc2[nH]c1=O)C(=O)c1ccccc1` (configuration not stated), the cell number change is -10.3%.
In the case of `Cc1nnc(SCC2=C(C(=O)O)N3C(=O)C(NC(=O)C(C)n4nc(C(F)(F)F)cc4C)C3SC2)s1` (configuration not stated), the cell number change turned out to be 29.9%. Further, under setting [1], the half-maximal activity concentration (AC50) was 29.1 µM [rising, single point].
For the compound `CCOc1ccc(NC(=O)CSc2nnc(-c3ccccc3Cl)n2Cc2ccco2)cc1`, the cell number change is -10.3%.
Turning to `Cc1nc2c(sc3nc4c(cc32)COC(C)(C)C4)c(=O)n1CC(=O)NCc1ccco1`, the cell number change is -8.19%. In addition, under setting [1], the AC50 is 3.66 µM [rising, full curve, poor fit].
With `CC(Sc1nnc2c(n1)[nH]c1ccccc12)C(=O)N(C)C1CCCCC1` (configuration not stated), the cell number change was 8.82%. In addition, the AC50 under setting [1] was 6.51 µM [falling, single point].
As to `O=C(c1cccs1)N1N=C(c2ccccc2)CC1c1ccccc1O` (configuration not stated), the cell number change is -29.7%. Moreover, the AC50 under setting [1] is 13 µM [falling, partial curve].
With `COC(=O)c1cn(C(=O)c2ccc(C)c(C)c2)c2ccccc12`, the cell number change is -6.26%. Under setting [2], the AC50 was 0.461 µM [rising, full curve, poor fit].
Consider `COC(=O)c1cc(C(=O)Nc2cc(C)on2)cc([N+](=O)[O-])c1`, for which the cell number change was 13.8%.
`O=C1NCC(NC(=O)C(F)(F)F)c2cc3c(cc21)OCO3` (configuration not stated): the cell number change came to 8.29%. Also, the AC50 under setting [2] is 6.51 µM [rising, single point].
On to `O=C(CSc1nnc(CNC(=O)c2cccs2)o1)Nc1ccc(F)cc1F`, for which the cell number change amounted to 12.5%. Also, the AC50 under setting [2] was 6.51 µM [rising, single point].
In the case of `COc1cc(/C=C/C(=O)c2ccc([N+](=O)[O-])o2)ccc1O`, the AC50 under setting [2] is 2.06 µM [falling, partial curve] and the AC50 under setting [1] is 2.06 µM [falling, full curve].
On to `COc1ccc(CCNC(=O)c2cc(S(=O)(=O)N(C)C)ccc2N2CCCC2)cc1OC`, for which the cell number change is -14.9%. In addition, the AC50 under setting [1] is 0.103 µM [falling, full curve, poor fit].
Regarding `CCC(C)NC(=O)Cc1cn(C)c2ccccc12` (configuration not stated), the cell number change was -11.2%.
Regarding `COC(=O)N/N=C/c1ccc(-c2ccccc2Cl)o1`, the cell number change is 19.2%. For the same compound, the half-maximal activity concentration (AC50) under setting [1] is 0.0231 µM [rising, full curve].
For `CCCCC(=O)Nc1cc([N+](=O)[O-])ccc1Cl`, the cell number change was -11.6%. In addition, the AC50 under setting [1] is 29.1 µM [rising, single point].
`CCOc1ccc(CCNC(=O)COC(=O)c2cccc(S(=O)(=O)N3CCCC3)c2)cc1OCC`: the cell number change is -67%. For the same compound, the AC50 under setting [2] was 29.1 µM [falling, single point]. Also, the AC50 under setting [1] is 29.1 µM [falling, single point].
Take `O=C(CN1C(=O)C2C3C=CC(C3)C2C1=O)Nc1nc(-c2ccccn2)cs1` (configuration not stated): the AC50 is, setting by setting: under setting [2], 0.82 µM [rising, full curve, poor fit]; under setting [1], 0.231 µM [rising, full curve, poor fit].
As for `O=C1C(Nc2ccc(O)cc2)=C/C(=N/S(=O)(=O)c2cccs2)c2ccccc21`, the cell number change was -45.4%. The AC50 under setting [1] is 3.26 µM [falling, partial curve].
Consider `O=CN1CCN(C(C(=O)NC2CCCC2)c2cc3c(cc2[N+](=O)[O-])OCO3)CC1` (configuration not stated), for which the AC50 under setting [2] was 6.51 µM [rising, partial curve] and the AC50 under setting [1] is 6.51 µM [rising, partial curve].
Turning to `O=S(=O)(Cc1ccccc1)NCC1CCCO1` (configuration not stated), the cell number change was -7.94%. Under setting [1], the AC50 is 6.51 µM [rising, partial curve].
For the compound `O=C(c1c[nH]c(C(=O)C(Cl)(Cl)Cl)c1)c1c(F)cccc1F`, the cell number change is -54.3%. For the same compound, under setting [2], the AC50 was 8.2 µM [falling, partial curve]. Also, the AC50 under setting [1] was 7.31 µM [falling, partial curve].
`OC(COc1ccccc1)CN1CCC(Cc2ccccc2)CC1` (configuration not stated): the cell number change was -10.6%.
`CNc1cc([N+](=O)[O-])ccc1N/C=C/C(=O)c1ccc2c(c1)OCO2`: the cell number change is -17.3%. Further, the AC50 under setting [2] was 0.00411 µM [rising, full curve, poor fit].
In the case of `COc1ccc(S(N)(=O)=O)cc1C(=O)N(C)CC(=O)Nc1ccc(N2CCOCC2)cc1`, the cell number change is -2.08%.
Consider `COC(=O)CN1C(=O)C(O)(CC(=O)c2ccc(C)cc2)c2ccccc21` (configuration not stated), for which the cell number change was -10.4%. Moreover, the AC50 under setting [1] is 0.517 µM [falling, full curve].
